The list is a part of this screen's results and no random one: it gathers tests that were run many times, whatever their T/C, doses with no T/C, and many T/C values between a quarter and a half above the control. Other doses and runs of a compound stand elsewhere. T/C is the treated group as % of the vehicle group. Some doses have a count of surviving animals in place of a T/C: the source holds a T/C of zero for them, seemingly a mark for toxic or unscored doses. Some survivor counts are full or nearly so, which does not show that the dose was tolerated: the source hardly ever lists a survival T/C far under the control, and the zero likely stands for such cases as well. Counts of survivors are from the toxicity check (mostly the fifth day) where no day follows; animals may have died later. Schedules are NCI's codes, taken here to give the interval after Q, in days (D) or hours (H), and the number of doses after X. Some schedules carry Z or #; the key to these is not given. Where survival is the endpoint, the PubChem record calls one and a half times the control and up active, and a quarter to a half above the control has no call in these data; cut-offs in other NCI protocols can differ. Some doses were run more than once; their values stand side by side, smallest first. Some T/C values carry the count of animals alive at the toxicity check (mostly the fifth day); without a count, all were alive then.

Survivor count and T/C data for 28 molecules are collected here from PubChem BioAssay AID248 (DTP/NCI, 2004).

This assay has as its system L1210 leukemia ip in BDF1 mice, survival T/C. In words: NCI In Vivo Anticancer Drug Screen. Data for tumor model L1210 Leukemia (intraperitoneal) in B6D2F1 (BDF1) mice. The settings on record: T/C endpoint: mean survival time, higher T/C = longer survival.
[1] abbreviates: dose: 400.0 mg/kg/injection, schedule: Q04DX003 (ip), vehicle: Klucel (hydroxypropylcellulose) (HPC).
Setting [2] is: dose: 300.0 mg/kg/injection, schedule: Q01DX001 (ip), vehicle: other.
[3] abbreviates: dose: 38.0 mg/kg/injection, schedule: Q01DX001 (ip), vehicle: other.
The mark [4] stands for this setting: dose: 75.0 mg/kg/injection, schedule: Q01DX001 (ip), vehicle: other.
[5] abbreviates: dose: 150.0 mg/kg/injection, schedule: Q01DX001 (ip), vehicle: other.
Where [6] appears, read: dose: 100.0 mg/kg/injection, schedule: Q01DX009 (ip), vehicle: saline with Tween-80.
Setting [7] is: dose: 200.0 mg/kg/injection, schedule: Q01DX009 (ip), vehicle: saline with Tween-80.
The mark [8] stands for this setting: dose: 400.0 mg/kg/injection, schedule: Q04DX003 (ip), vehicle: saline with Tween-80.
The mark [9] stands for this setting: dose: 200.0 mg/kg/injection, schedule: Q01DX001 (ip), vehicle: saline.
The mark [10] stands for this setting: dose: 400.0 mg/kg/injection, schedule: Q01DX001 (ip), vehicle: saline.
Setting [11] is: dose: 400.0 mg/kg/injection, schedule: Q01DX009 (ip), vehicle: saline.

With `CCCCC[C@H](CN(C)C)[C@H](O)/C=C/c1ccc(Cl)cc1`, the survivor count (dose: 100.0 mg/kg/injection, schedule: Q04DX002 (ip), vehicle: other) was 3 of 3; the survivor count (dose: 200.0 mg/kg/injection, schedule: Q04DX002 (ip), vehicle: other) is 3 of 3; the survivor count (dose: 400.0 mg/kg/injection, schedule: Q04DX002 (ip), vehicle: other) is 3 of 3.

`CS(=O)(=O)N1C=CC=CC=C1`: the survivor count (dose: 100.0 mg/kg/injection, schedule: Q04DX003 (ip), vehicle: Klucel (hydroxypropylcellulose) (HPC)) is 2 of 6; the survivor count (dose: 200.0 mg/kg/injection, schedule: Q04DX003 (ip), vehicle: Klucel (hydroxypropylcellulose) (HPC)) is given as 2 of 6; the survivor count under setting [1] was 0 of 6.

`O=C(NN1C(=O)c2cccc3cccc(c23)C1=O)NN1C(=O)c2cccc3cccc(c23)C1=O`: under “dose: 400.0 mg/kg/injection, schedule: Q04DX002 (ip), vehicle: Klucel (hydroxypropylcellulose) (HPC)”, the survivor count is recorded as 1 of 3.

Regarding `Cc1cn[nH]c1-c1ccccc1`, the survivor count under setting [1] is given as 6 of 6.

Regarding `CCCCC(CC)C(=O)[O][Sn]([CH2]CCC)([CH2]CCC)[O]C(=O)C(CC)CCCC` (stereo not given), the survivor count (dose: 50.0 mg/kg/injection, schedule: Q04DX003 (ip), vehicle: saline with Tween-80) is 1 of 6; the survivor count (dose: 100.0 mg/kg/injection, schedule: Q04DX003 (ip), vehicle: saline with Tween-80) is reported as 0 of 6; the survivor count (dose: 200.0 mg/kg/injection, schedule: Q04DX003 (ip), vehicle: saline with Tween-80) is listed as 0 of 6.

Turning to `CCCCNN`, under setting [2], the survivor count is 0 of 6.

On to `Cc1ccc(S(=O)(=O)NC(C)(C)CNc2ncnc(Cl)c2N)cc1`, for which the survivor count is recorded as 1 of 6 under setting [3], 2 of 6 under setting [4], 0 of 6 under setting [5] and 0 of 6 under setting [2].

For the molecule `CCC1=C2C(=O)c3ccccc3C2=C(C)S(=O)(=O)O1`, the survivor count under setting [6] was 5 of 6, the survivor count under setting [7] is on record as 2 of 6 and the survivor count under setting [8] was 1 of 6.

With `Nc1nc(N)c(-c2ccc(Cl)c(Cl)c2)c(COc2ccc(NC(=O)Nc3ccc(S(=O)(=O)F)c(Cl)c3)c(Cl)c2)n1`, the survivor count (dose: 300.0 mg/kg/injection, schedule: Q01DX001 (ip), vehicle: saline with Tween-80) is 6 of 6.

Regarding `CSc1nn(C)c[n+]1-c1ccccc1`, the survivor count is 2 of 6 under setting [9] and 0 of 6 under setting [10].

As for `CCOC(=O)C(C#N)C(=N)C1CC(C)(C)OC1=O` (stereo not given), under setting [2], the survivor count was 2 of 6.

As for `O=C(Cc1ccccc1)Nc1ccc[n+](Cc2ccc(S(=O)(=O)F)cc2)c1`, the survivor count (dose: 400.0 mg/kg/injection, schedule: Q04DX003 (ip), vehicle: saline) is 2 of 6.

Turning to `COC(=O)c1ccc[n+](CC(=O)c2ccccc2)c1`, under setting [8], the survivor count is 2 of 6.

`CC1(C)CCC(=NO)CC1`: the survivor count under setting [2] is given as 1 of 6.

In the case of `CCOC(=O)c1cn[nH]c1/N=N/N(CCF)CCF`, the survivor count was 0 of 6 under setting [4], 0 of 6 under setting [5] and 0 of 6 under setting [2].

With `COc1ccc2c(c1)CCC2=O`, the survivor count under setting [7] is 3 of 6 and the survivor count under setting [1] was 0 of 6.

For the molecule `CC1=CC(=O)C(C(C)C)CC1=O` (stereo not given), the survivor count is 1 of 6 under setting [6]; 3 of 6 under setting [7]; 0 of 6 (dose: 400.0 mg/kg/injection, schedule: Q01DX009 (ip), vehicle: saline with Tween-80).

In the case of `C#CCn1cnc2c(=S)nc[nH]c21`, the T/C (dose: 45.0 mg/kg/injection, schedule: Q01DX009 (ip), vehicle: saline) was 146 % of control; the T/C (dose: 120.0 mg/kg/injection, schedule: Q04DX003 (ip), vehicle: saline) was 136 % of control; the T/C (dose: 177.0 mg/kg/injection, schedule: Q04DX003 (ip), vehicle: Klucel (hydroxypropylcellulose) (HPC)) is 132 % of control; the T/C (dose: 264.0 mg/kg/injection, schedule: Q01DX001 (ip), vehicle: other) was 133 % of control; the T/C (dose: 266.0 mg/kg/injection, schedule: Q01DX001 (ip), vehicle: Klucel (hydroxypropylcellulose) (HPC)) was 131 % of control; the T/C (dose: 400.0 mg/kg/injection, schedule: Q01DX001 (ip), vehicle: Klucel (hydroxypropylcellulose) (HPC)) was 135 % of control. In addition, the T/C is, setting by setting: (dose: 400.0 mg/kg/injection, schedule: Q01DX001 (ip), vehicle: other) 125 and 139 % of control; under setting [1], 141 % of control; (dose: 600.0 mg/kg/injection, schedule: Q04DX003 (ip), vehicle: Klucel (hydroxypropylcellulose) (HPC)) 143 % of control. The survivor count was 6 of 6 (dose: 265.0 mg/kg/injection, schedule: Q01DX009 (ip), vehicle: saline); 6 of 6 under setting [11]; 6 of 6 (dose: 600.0 mg/kg/injection, schedule: Q01DX009 (ip), vehicle: saline).

`C=C(C)C(=O)OC1CC23OC2CC(COC3O)C2OC2C2OC(=O)C(=C)C12` (stereo not given): the survivor count (dose: 25.0 mg/kg/injection, schedule: Q01DX009 (ip), vehicle: acetone) is recorded as 1 of 6; the survivor count (dose: 50.0 mg/kg/injection, schedule: Q04DX003 (ip), vehicle: acetone) is 4 of 6; the survivor count (dose: 100.0 mg/kg/injection, schedule: Q01DX001 (ip), vehicle: acetone) is 0 of 6; the survivor count (dose: 200.0 mg/kg/injection, schedule: Q01DX001 (ip), vehicle: acetone) is 0 of 6; the survivor count (dose: 400.0 mg/kg/injection, schedule: Q01DX001 (ip), vehicle: acetone) is 0 of 6.

For the molecule `CC(C)CCSc1ccccc1`, the survivor count (dose: 300.0 mg/kg/injection, schedule: Q01DX001 (ip), vehicle: acetone) is recorded as 1 of 6.

`CC(Cl)CCN1CCCCC1` (stereo not given): the survivor count is, setting by setting: (dose: 100.0 mg/kg/injection, schedule: Q01DX001 (ip), vehicle: saline) 0 of 4; under setting [9], 0 of 4; under setting [10], 0 of 4.

`NC(=O)c1cn[nH]c1/N=N/N(CCF)CCF`: the T/C (dose: 15.0 mg/kg/injection, schedule: Q01DX009 (ip), vehicle: other) is 136 % of control [5 of 6 alive]. Further, the survivor count is listed as 1 of 6 under setting [3], 0 of 6 under setting [4], 0 of 6 under setting [5] and 0 of 6 under setting [2].

On to `O=C(Nc1ccc(C2=NCCS2)cc1)c1ccc(C(=O)Nc2ccc(C3=NCCS3)cc2)cc1`, for which the survivor count by setting is: (dose: 250.0 mg/kg/injection, schedule: Q01DX Z (ip), vehicle: water) 2 of 6; (dose: 500.0 mg/kg/injection, schedule: Q01DX Z (ip), vehicle: water) 2 of 6.

Take `c1ccc(C(c2ccccc2)[Si](c2ccccc2)(c2ccccc2)c2ccccc2)cc1`: the survivor count (dose: 400.0 mg/kg/injection, schedule: Q04DX002 (ip), vehicle: saline with Tween-80) is listed as 3 of 3.

Turning to `c1ccc([P+](C[P+](c2ccccc2)(c2ccccc2)c2ccccc2)(c2ccccc2)c2ccccc2)cc1`, for the setting “dose: 6.25 mg/kg/injection, schedule: Q01DX009 (ip), vehicle: Klucel (hydroxypropylcellulose) (HPC)”, the survivor count is 5 of 6.

Take `CC1CCC2(CC1)CCN(CCCN(C)C)CC2`: the survivor count (dose: 340.0 mg/kg/injection, schedule: Q01DX015 (ip), vehicle: saline) is recorded as 0 of 6.

As for `OCC1OC(n2nnc3c(=S)nc[nH]c32)C(O)C1O` (stereo not given), the T/C (dose: 25.0 mg/kg/injection, schedule: Q01DX001 (ip), vehicle: saline) is 133 % of control.

For the molecule `CCCCCCCCCCCC[N+](C)(C)C`, the survivor count is 0 of 6 (dose: 40.0 mg/kg/injection, schedule: Q01DX009 (ip), vehicle: saline); 0 of 6 (dose: 100.0 mg/kg/injection, schedule: Q01DX009 (ip), vehicle: saline); 0 of 6 (dose: 200.0 mg/kg/injection, schedule: Q01DX009 (ip), vehicle: saline); 0 of 6 under setting [11].
